Five molecules from publication doi:10.1101/2020.09.01.277764 can be followed below.

Sequences of proteins named here, by UniProt entry; tags and fusion partners are left off.
UniProt Q676U5: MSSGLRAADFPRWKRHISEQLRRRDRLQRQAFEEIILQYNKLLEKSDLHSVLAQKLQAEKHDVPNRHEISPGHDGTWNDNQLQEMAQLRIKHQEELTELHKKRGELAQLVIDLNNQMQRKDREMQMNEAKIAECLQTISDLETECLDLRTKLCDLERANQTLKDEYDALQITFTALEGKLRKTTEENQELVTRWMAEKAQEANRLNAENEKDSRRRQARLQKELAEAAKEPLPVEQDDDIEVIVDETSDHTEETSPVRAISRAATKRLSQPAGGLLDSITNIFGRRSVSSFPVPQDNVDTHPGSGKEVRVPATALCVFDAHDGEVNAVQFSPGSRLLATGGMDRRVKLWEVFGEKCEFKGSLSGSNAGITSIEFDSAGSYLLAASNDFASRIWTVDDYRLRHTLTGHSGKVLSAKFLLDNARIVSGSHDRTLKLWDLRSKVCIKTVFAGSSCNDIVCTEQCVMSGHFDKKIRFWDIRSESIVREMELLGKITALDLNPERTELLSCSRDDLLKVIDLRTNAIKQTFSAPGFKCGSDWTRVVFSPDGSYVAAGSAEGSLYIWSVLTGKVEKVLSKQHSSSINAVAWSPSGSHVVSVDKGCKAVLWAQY

Numbering of substitutions follows the chain as printed. Results are given in words; binding and its absence hold for the method and conditions named. For part of these data: Binding seen in cells or lysates may run through a third protein. Some entries that bind do so weakly or less than the wild type. For part of these data: Tags and fused reporters may be left off the sequences shown.

Test [1] concerns the target T1, myc-tagged Rabaptin5 triple-alanine mutant (Y507A/W515A/L518A) (human) (UniProt Q15276).
T1 sequence: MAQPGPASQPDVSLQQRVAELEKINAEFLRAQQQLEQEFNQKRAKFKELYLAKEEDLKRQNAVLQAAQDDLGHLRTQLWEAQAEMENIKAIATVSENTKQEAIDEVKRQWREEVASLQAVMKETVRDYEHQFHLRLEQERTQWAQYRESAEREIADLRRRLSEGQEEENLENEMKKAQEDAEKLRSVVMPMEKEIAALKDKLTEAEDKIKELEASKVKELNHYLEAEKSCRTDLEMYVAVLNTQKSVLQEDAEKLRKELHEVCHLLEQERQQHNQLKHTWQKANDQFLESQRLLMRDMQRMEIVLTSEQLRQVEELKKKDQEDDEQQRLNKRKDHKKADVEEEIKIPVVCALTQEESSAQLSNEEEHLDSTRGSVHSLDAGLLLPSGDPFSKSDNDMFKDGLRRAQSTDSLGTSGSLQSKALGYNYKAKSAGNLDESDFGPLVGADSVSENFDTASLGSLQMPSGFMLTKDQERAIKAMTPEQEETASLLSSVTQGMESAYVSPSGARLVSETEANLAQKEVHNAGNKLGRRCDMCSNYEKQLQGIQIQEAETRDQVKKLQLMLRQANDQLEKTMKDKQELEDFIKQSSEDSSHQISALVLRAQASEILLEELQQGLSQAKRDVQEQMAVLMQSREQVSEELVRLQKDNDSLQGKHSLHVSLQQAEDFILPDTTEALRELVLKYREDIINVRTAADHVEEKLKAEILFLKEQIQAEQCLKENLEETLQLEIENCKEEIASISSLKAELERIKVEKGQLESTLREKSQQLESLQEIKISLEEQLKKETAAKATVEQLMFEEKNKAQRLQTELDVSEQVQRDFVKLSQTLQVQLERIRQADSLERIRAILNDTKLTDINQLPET
The test can be described thus: co-IP.

Test [2] addresses T2, Rabaptin5 coiled-coil domain CC2-1 (residues 547–666) fused to LexA (human) (UniProt Q15276).
T2 sequence: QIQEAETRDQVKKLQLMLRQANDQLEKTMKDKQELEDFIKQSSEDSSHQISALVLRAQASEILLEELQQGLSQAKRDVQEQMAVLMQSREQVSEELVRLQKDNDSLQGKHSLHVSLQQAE
The test can be described thus: two-hybrid.

Test [3] deals with T3, human Rabaptin5 (1–862) fused to LexA (human) (UniProt Q15276).
T3 sequence: T1 sequence with A507Y, A515W, A518L
The test is described as follows: two-hybrid.

In test [4] the target is full-length FIP200-mCherry (human) (UniProt Q8TDY2). The test can be described thus: co-IP.
Test [5] addresses FIP200 (endogenous) (human (endogenous in HeLa and HEK293A)) (UniProt Q8TDY2). The test can be described thus: co-IP.

Turning to “ATG16L1 (endogenous) (from UniProt Q676U5 1-607)”, the binding entry in test [1] is reported as “no binding”.

B1: FIP200 residues 257–444 fused to the Gal4 activation domain (domain or fragment, UniProt Q8TDY2 257-444)
chain: SFPKSVEHVSPDTADAESGKEIRESCQSTVHQQDETTIDTKDGDLPFFNVSLLDWINVQDRPNDVESLVRKCFDSMSRLDPRIIRPFIAECRQTIAKLDNQNMKAIKGLEDRLYALDQMIASCGRLVNEQKELAQGFLANQKRAENLKDASVLPDLCLSHANQLMIMLQNHRKLLDIKQKCTTAKQEL
As for B1, in test [2], the binding entry is recorded as “binds”.

B2: human Rabaptin5 (1–862) fused to LexA (protein, UniProt Q15276 1-862)
chain: T1 sequence with A507Y, A515W, A518L
For the molecule B2, in test [3], the binding entry is “binds”.

B3: Rabaptin5 (endogenous) (protein, UniProt Q15276 1-862)
chain: T1 sequence with A507Y, A515W, A518L
As to B3, the binding result in test [4] and in test [5] was “binds” throughout.

B4: FIP200 residues 281–439 (smallest interacting prey fragment of the screen) (domain or fragment, UniProt Q8TDY2 281-439)
chain: SCQSTVHQQDETTIDTKDGDLPFFNVSLLDWINVQDRPNDVESLVRKCFDSMSRLDPRIIRPFIAECRQTIAKLDNQNMKAIKGLEDRLYALDQMIASCGRLVNEQKELAQGFLANQKRAENLKDASVLPDLCLSHANQLMIMLQNHRKLLDIKQKCTT
On to B4, for which the binding result in test [3] is “binds”.
